# Measurements published in patent publication US20180185510A1, “ANTIBODY DRUG CONJUGATES OF KINESIN SPINDEL PROTEIN (KSP) INHIBITORS WITH ANTI-B7H3-ANTIBODIES” (BAYER PHARMA AKTIENGESELLSCHAFT, priority 2015, published 2018).
# Results are given in words; binding and its absence hold for the method and conditions named. Some binding calls cover weakened binding; strength is not graded here.
# T1: human B7H3 (RnDSystems, 2318-B3-050/CF) (human, UniProt Q5ZPR3 29-461)
# T1 construct: Bought antigen, detected with an anti-His HRP antibody, so a His tag is implied
# T1 sequence (looked up): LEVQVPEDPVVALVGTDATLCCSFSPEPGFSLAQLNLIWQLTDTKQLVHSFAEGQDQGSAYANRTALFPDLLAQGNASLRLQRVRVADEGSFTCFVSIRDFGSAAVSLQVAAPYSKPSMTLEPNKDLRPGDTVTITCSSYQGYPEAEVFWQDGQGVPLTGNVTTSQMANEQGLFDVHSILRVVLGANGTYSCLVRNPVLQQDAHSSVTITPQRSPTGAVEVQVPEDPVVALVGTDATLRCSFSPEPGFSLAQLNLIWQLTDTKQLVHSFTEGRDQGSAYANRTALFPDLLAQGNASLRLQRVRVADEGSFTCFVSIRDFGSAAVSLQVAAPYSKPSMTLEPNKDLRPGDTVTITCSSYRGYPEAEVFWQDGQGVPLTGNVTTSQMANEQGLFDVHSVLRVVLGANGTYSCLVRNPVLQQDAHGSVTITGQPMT
# Legend:
# [1] = target: T1, human B7H3 (RnDSystems, 2318-B3-050/CF); experiment: as described in AK-Example 1 (ELISA)
# [2] = target: T1, human B7H3 (RnDSystems, 2318-B3-050/CF); experiment: ELISA (AK-Example 1); Tab. AK-2 not given
binding [1],binding [2],Binder
binds,binds,"TPP-6850 (antibody, human IgG1, kappa, V domains shown) VH: EVQLVQSGAEVKKPGASVKVSCKASGYTFTIYNVHWIRQAPGQGLEWMGTIFPGNGDTSYNQKFKDRATLTTDKSTKTAYMELRSLRSDDTAVYYCARWDDGNVGFAHWGQGTLVTVSS VL: DIQMTQSPSSLSASVGDRVTITCRASENINNYLTWFQQKPGKAPKLLVYHAKTLAEGVPSRFSGSGSGTQFTLTISSLQPEDFATYYCQHHYGTPPTFGQGTKLEIKR"
binds,binds,"TPP-6642 (antibody, human IgG1, kappa, V domains shown) VH: EVQLVQSGAEVKKPGASVKVSCKASGYTFTIYNVHWVRQAPGQGLEWMGTIFPGNGDTSYNQKFKDKVTMTTDTSTSTAYMELSSLRSEDTAVYYCARWDDGNVGFAHWGQGTLVTVSS VL: DIQMTQSPSSLSASVGDRVTITCRASENINNYLTWFQQKQGKSPQLLIYHAKTLAEGVPSRFSGSGSGTDFTLTISSLQPEDFATYYCQHHYGTPPTFGGGTKVEIKR"
